# PubChem BioAssay AID1471 (National Center for Advancing Translational Sciences (NCATS), 2008)
# The whole screen tested about 230,000 compounds, of which about 310 (0.13%) were called active. Inconclusive means that the source gave no clear call. Such entries were picked first, then a sample of the others. Calls come from the whole dose curve; as a rule, active = well fitted activation curve with a large enough effect; inconclusive = small, poorly fitted or top-dose-only effect; inactive = no such curve, though single readings can be large or run the other way. Where the call is inconclusive, the potency comes from a doubtful curve fit.
# Assay: qHTS Multiplex Assay to Identify Dual Action Probes in a Cell Model of Huntington: Cytoprotection (ATP); note: nearly all actives have a fitted effect of over 45% in size;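 for cytoprotection (ATP increase): toxic huntingtin expression switched on by the ecdysone agonist tebufenozide; % of control where 0% means no effect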
# Conditions: PC12 HTT-Q103 induced, ATP luminescence, 40 h; cytoprotection (ATP increase): at 56.4 µM (top of the series) unless noted
# Outline: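 Cells were plated at 1500 per well in phenol red-free DMEM with 5% equine and 5% calf serum. Tebufenozide (100 nM final) and compounds were added, then ATPlite reagent, and luminescence was read.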
# Potency is the fitted concentration of half-maximal effect.
SMILES,cytoprotection (ATP increase),Potency
Ic1ccc2c(c1)N(c1ccccc1)c1cc(Nc3ccc4nc5ccc(I)cc5[n+](-c5ccccc5)c4c3)ccc1N2,inactive: -4.86% [at 10 µM],
O=C(Nc1ccc(N2CCN(C(=O)c3ccco3)CC2)c(Cl)c1)c1c(F)c(F)c(F)c(F)c1F,inactive: 9.61% [at 10 µM],
COC(=O)c1c(NC(=O)c2cccc([N+](=O)[O-])c2)sc(C(N)=O)c1C,,"inconclusive: 17.8 µM [activator, single point]"
CCOC(=O)CCN1C(=O)[C@H]2[C@H]3[C@H](O)[C@H](O)C/C(=N/OCC(C)C)[C@H]3CC[C@@H]2C1=O,,"inconclusive: 1.26 µM [activator, single point]"
COCC(=O)N1CCC[C@@]2(CCN(C(=O)Nc3cccc(C#N)c3)C2)C1,,"inconclusive: 5.62 µM [activator, single point]"
CC(=O)N[C@@H](Cc1c[nH]c2ccccc12)C(=O)OCc1cc(C(F)(F)F)cc(C(F)(F)F)c1,,"inconclusive: 0.708 µM [activator, single point]"
CNC(=O)COC(=O)c1cc(SC)ccc1Cl,,"inconclusive: 0.708 µM [activator, single point]"
Cc1[nH]c2ccccc2c1Cc1nnc(SCCC#N)o1,,"inconclusive: 4.47 µM [activator, single point]"
O=C(c1ccncc1)N1CCC2(CC1)CN(c1ncccn1)C2,,inactive
O=C(COC(=O)c1cc[n+]([O-])cc1)NCc1ccccc1Cl,,"inconclusive: 3.16 µM [activator, single point]"
CCCCN(CC)CCCNC(=O)c1csc2c1CCCCC2,,inactive
O=C(O)c1ccc(NCc2nc3ccccc3n2Cc2ccccc2F)cc1,,"inconclusive: 1.26 µM [activator, single point]"
O=C(c1ccccc1)N1CCCC(C(=O)N2CCc3ccccc3C2)C1 (stereo not drawn),,"inconclusive: 4.47 µM [activator, single point]"
O=[N+]([O-])c1cccc2c(Cl)ccnc12,,"inconclusive: 3.98 µM [activator, single point]"
Cc1cccc(C(=O)NCC(=O)OCC(=O)c2cc(C)n(CC3CCCO3)c2C)c1 (stereo not drawn),,"inconclusive: 0.562 µM [activator, partial curve]"
Cc1cc(C)cc(Oc2nc(-c3ccccc3)cc(C)c2S(C)(=O)=O)c1,,inactive
COc1ccc(N2CCN(C(=O)c3ccc(F)cc3)CC2)c([N+](=O)[O-])c1,,"inconclusive: 3.55 µM [activator, single point]"
CC(C(N)=O)N1C(=O)c2cccc3cccc1c23 (stereo not drawn),,"inconclusive: 3.55 µM [activator, full curve, poor fit]"

# An excerpt from above in order of length of the SMILES, low to high:
SMILES,cytoprotection (ATP increase),Potency
CNC(=O)COC(=O)c1cc(SC)ccc1Cl,,"inconclusive: 0.708 µM [activator, single point]"
O=C(c1ccncc1)N1CCC2(CC1)CN(c1ncccn1)C2,,inactive
O=C(O)c1ccc(NCc2nc3ccccc3n2Cc2ccccc2F)cc1,,"inconclusive: 1.26 µM [activator, single point]"
Cc1cc(C)cc(Oc2nc(-c3ccccc3)cc(C)c2S(C)(=O)=O)c1,,inactive
Cc1cccc(C(=O)NCC(=O)OCC(=O)c2cc(C)n(CC3CCCO3)c2C)c1 (stereo not drawn),,"inconclusive: 0.562 µM [activator, partial curve]"
